# Experimental data published in the supplement of paper PMC10077471.
# Over roughly 1,900 compounds, “excess over highest single agent (ExcessHSA) synergy score, 6x6 matrix” has its median near -83; the lowest 2% begin near -370. The list shows a part of the results.
# Test system: NCI-H446
# Assay: excess over highest single agent (ExcessHSA) synergy score, 6x6 matrix; higher = less synergy (more negative = stronger synergy)
# Conditions: 72 h; CellTiter-Glo viability
row,SMILES,excess over highest single agent
1,C=C1C(=O)O[C@H]2[C@H]1CC/C(C)=C/CC[C@@]1(C)O[C@@H]21 + Cc1sc2c(c1C)C(c1ccc(Cl)cc1)=N[C@@H](CC(=O)OC(C)(C)C)c1nnc(C)n1-2 [NCGC00250412-19],-213
2,C[C@]12CC[C@H](O)CC1=CC[C@@H]1[C@@H]2CC[C@]2(C)C(c3cccnc3)=CC[C@@H]12 + Cc1sc2c(c1C)C(c1ccc(Cl)cc1)=N[C@@H](CC(=O)OC(C)(C)C)c1nnc(C)n1-2 [NCGC00250412-19],-23.9
3,COc1ccc(CCC(=O)c2c(O)cc(O[C@@H]3O[C@H](CO)[C@@H](O)[C@H](O)[C@H]3O[C@@H]3O[C@@H](C)[C@H](O)[C@@H](O)[C@H]3O)cc2O)cc1O + Cc1sc2c(c1C)C(c1ccc(Cl)cc1)=N[C@@H](CC(=O)OC(C)(C)C)c1nnc(C)n1-2 [NCGC00250412-19],2.7
4,O=[N+]([O-])c1cn2c(n1)OC[C@@H](OCc1ccc(OC(F)(F)F)cc1)C2 + Cc1sc2c(c1C)C(c1ccc(Cl)cc1)=N[C@@H](CC(=O)OC(C)(C)C)c1nnc(C)n1-2 [NCGC00250412-19],2.42
5,Cn1nnc2c(C(N)=O)ncn2c1=O + Cc1sc2c(c1C)C(c1ccc(Cl)cc1)=N[C@@H](CC(=O)OC(C)(C)C)c1nnc(C)n1-2 [NCGC00250412-19],-118
6,CC[C@@H](C(=O)[C@@H](C)[C@@H](O)[C@H](C)[C@@H]1O[C@@H]([C@@H](CC)C(=O)O)CC[C@@H]1C)[C@H]1O[C@]2(C=C[C@@H](O)[C@]3(CC[C@@](C)([C@H]4CC[C@](O)(CC)[C@H](C)O4)O3)O2)[C@H](C)C[C@@H]1C + Cc1sc2c(c1C)C(c1ccc(Cl)cc1)=N[C@@H](CC(=O)OC(C)(C)C)c1nnc(C)n1-2 [NCGC00250412-19],-237
7,O=C(O)C(=O)c1cn(Cc2ccccc2)c2ccc(-c3ccc(OC(F)(F)F)cc3)cc12 + Cc1sc2c(c1C)C(c1ccc(Cl)cc1)=N[C@@H](CC(=O)OC(C)(C)C)c1nnc(C)n1-2 [NCGC00250412-19],-25.5
8,Cc1[nH]nc2ccc(-c3cncc(OC[C@@H](N)Cc4ccccc4)c3)cc12 + Cc1sc2c(c1C)C(c1ccc(Cl)cc1)=N[C@@H](CC(=O)OC(C)(C)C)c1nnc(C)n1-2 [NCGC00250412-19],5.66
9,CC(C)[C@H](O)C(=O)N[C@@H](C)C(=O)N[C@@H]1C(=O)N(C)CCc2ccccc21 + Cc1sc2c(c1C)C(c1ccc(Cl)cc1)=N[C@@H](CC(=O)OC(C)(C)C)c1nnc(C)n1-2 [NCGC00250412-19],-262
10,CSCC[C@H](NC(=O)[C@H](Cc1ccccc1)NC(=O)CNC(=O)CNC(=O)[C@@H](N)Cc1ccc(O)cc1)C(=O)O + Cc1sc2c(c1C)C(c1ccc(Cl)cc1)=N[C@@H](CC(=O)OC(C)(C)C)c1nnc(C)n1-2 [NCGC00250412-19],-122
11,N#Cc1ccc(NC(=O)Nc2ccccc2Br)c2n[nH]nc12 + Cc1sc2c(c1C)C(c1ccc(Cl)cc1)=N[C@@H](CC(=O)OC(C)(C)C)c1nnc(C)n1-2 [NCGC00250412-19],-69.3
12,COc1cc(CCc2cc(NC(=O)c3ccc(N4CC(C)NC(C)C4)cc3)n[nH]2)cc(OC)c1 (configuration not stated) + Cc1sc2c(c1C)C(c1ccc(Cl)cc1)=N[C@@H](CC(=O)OC(C)(C)C)c1nnc(C)n1-2 [NCGC00250412-19],-88.8
13,O=C1Nc2ccc(Cl)cc2[C@@](C#CC2CC2)(C(F)(F)F)O1 + Cc1sc2c(c1C)C(c1ccc(Cl)cc1)=N[C@@H](CC(=O)OC(C)(C)C)c1nnc(C)n1-2 [NCGC00250412-19],-86.5
14,c1ccc(-c2nn3c(c2-c2ccnc4cc(OCCN5CCOCC5)ccc24)CCC3)nc1 + Cc1sc2c(c1C)C(c1ccc(Cl)cc1)=N[C@@H](CC(=O)OC(C)(C)C)c1nnc(C)n1-2 [NCGC00250412-19],179
15,O=C(O)Cn1nnc(-c2cc(N3CCC(Oc4cc(F)ccc4Br)CC3)no2)n1 + Cc1sc2c(c1C)C(c1ccc(Cl)cc1)=N[C@@H](CC(=O)OC(C)(C)C)c1nnc(C)n1-2 [NCGC00250412-19],-191
16,O=C(Nc1cccc(Br)c1)c1cccc(S(=O)(=O)N2CCCCCC2)c1 + Cc1sc2c(c1C)C(c1ccc(Cl)cc1)=N[C@@H](CC(=O)OC(C)(C)C)c1nnc(C)n1-2 [NCGC00250412-19],20.4
17,Cc1cccc(C)c1OCC(=O)N[C@@H](Cc1ccccc1)[C@@H](O)C[C@H](Cc1ccccc1)NC(=O)[C@H](C(C)C)N1CCCNC1=O + Cc1sc2c(c1C)C(c1ccc(Cl)cc1)=N[C@@H](CC(=O)OC(C)(C)C)c1nnc(C)n1-2 [NCGC00250412-19],-162
18,c1ccc(CNc2nc(N3CCOc4ccccc43)nc3c2CCCC3)cc1 + Cc1sc2c(c1C)C(c1ccc(Cl)cc1)=N[C@@H](CC(=O)OC(C)(C)C)c1nnc(C)n1-2 [NCGC00250412-19],-84
19,Clc1ccc(C(c2ccccc2Cl)C(Cl)Cl)cc1 (configuration not stated) + Cc1sc2c(c1C)C(c1ccc(Cl)cc1)=N[C@@H](CC(=O)OC(C)(C)C)c1nnc(C)n1-2 [NCGC00250412-19],-43.8

row,SMILES,excess over highest single agent
1,N#CC[C@H](C1CCCC1)n1cc(-c2ncnc3[nH]ccc23)cn1 + Cc1sc2c(c1C)C(c1ccc(Cl)cc1)=N[C@@H](CC(=O)OC(C)(C)C)c1nnc(C)n1-2 [NCGC00250412-19],234
2,CN(C[C@@H]1COCCO1)S(=O)(=O)Nc1ccc2ccc3ncc(-c4cnn(C)c4)cc3c(=O)c2c1 + Cc1sc2c(c1C)C(c1ccc(Cl)cc1)=N[C@@H](CC(=O)OC(C)(C)C)c1nnc(C)n1-2 [NCGC00250412-19],-193
3,CCCc1nn(C)c2c(=O)[nH]c(-c3cc(S(=O)(=O)N4CCN(C)CC4)ccc3OCC)nc12 + Cc1sc2c(c1C)C(c1ccc(Cl)cc1)=N[C@@H](CC(=O)OC(C)(C)C)c1nnc(C)n1-2 [NCGC00250412-19],-189
4,CCC(C)(C)C(=O)O[C@H]1C[C@@H](C)C=C2C=C[C@H](C)[C@H](CC[C@@H]3C[C@@H](O)CC(=O)O3)[C@H]21 + Cc1sc2c(c1C)C(c1ccc(Cl)cc1)=N[C@@H](CC(=O)OC(C)(C)C)c1nnc(C)n1-2 [NCGC00250412-19],-62.2
5,CCCCS(=N)(=O)CCC(N)C(=O)O (configuration not stated) + Cc1sc2c(c1C)C(c1ccc(Cl)cc1)=N[C@@H](CC(=O)OC(C)(C)C)c1nnc(C)n1-2 [NCGC00250412-19],-53.3
6,N=c1nc(N2CCCCC2)cc(N)n1O + Cc1sc2c(c1C)C(c1ccc(Cl)cc1)=N[C@@H](CC(=O)OC(C)(C)C)c1nnc(C)n1-2 [NCGC00250412-19],-91.3
7,CC(C)c1cnn2c(NCc3ccccc3)cc(NCCCCCCN)nc12 + Cc1sc2c(c1C)C(c1ccc(Cl)cc1)=N[C@@H](CC(=O)OC(C)(C)C)c1nnc(C)n1-2 [NCGC00250412-19],-58.1
8,CCOC(=O)N1CCN(/[N+]([O-])=N/Oc2ccc([N+](=O)[O-])cc2C#N)CC1 + Cc1sc2c(c1C)C(c1ccc(Cl)cc1)=N[C@@H](CC(=O)OC(C)(C)C)c1nnc(C)n1-2 [NCGC00250412-19],-234
9,O=C(c1ccc(F)c(F)c1Nc1ccc(I)cc1F)N1CC(O)([C@@H]2CCCCN2)C1 + Cc1sc2c(c1C)C(c1ccc(Cl)cc1)=N[C@@H](CC(=O)OC(C)(C)C)c1nnc(C)n1-2 [NCGC00250412-19],-50.5
10,COc1cc2nc(N3CCCN(C)CC3)nc(NC3CCN(Cc4ccccc4)CC3)c2cc1OC + Cc1sc2c(c1C)C(c1ccc(Cl)cc1)=N[C@@H](CC(=O)OC(C)(C)C)c1nnc(C)n1-2 [NCGC00250412-19],-95.7
11,O=S(=O)(c1cccc2cnccc12)N1CCCNCC1 + Cc1sc2c(c1C)C(c1ccc(Cl)cc1)=N[C@@H](CC(=O)OC(C)(C)C)c1nnc(C)n1-2 [NCGC00250412-19],71.4
12,C[C@]12CC[C@H]3[C@@H](CCC4=CC(=O)CC[C@@]43C)[C@@H]1CC[C@@H]2O + Cc1sc2c(c1C)C(c1ccc(Cl)cc1)=N[C@@H](CC(=O)OC(C)(C)C)c1nnc(C)n1-2 [NCGC00250412-19],-246
13,CCC1(C)CC(=O)NC1=O (configuration not stated) + Cc1sc2c(c1C)C(c1ccc(Cl)cc1)=N[C@@H](CC(=O)OC(C)(C)C)c1nnc(C)n1-2 [NCGC00250412-19],-2.21
14,CC(C)(O)CC(=O)NCCn1ccc2ncnc(Nc3ccc(Oc4cccc(C(F)(F)F)c4)c(Cl)c3)c21 + Cc1sc2c(c1C)C(c1ccc(Cl)cc1)=N[C@@H](CC(=O)OC(C)(C)C)c1nnc(C)n1-2 [NCGC00250412-19],16.5
15,CC(NCCc1ccc(O)cc1)C(O)c1ccc(O)cc1 (configuration not stated) + Cc1sc2c(c1C)C(c1ccc(Cl)cc1)=N[C@@H](CC(=O)OC(C)(C)C)c1nnc(C)n1-2 [NCGC00250412-19],-41.8
16,c1cc(OCCN2CCCCC2)cc(-c2n[nH]c3ccc(-c4nnc[nH]4)cc23)c1 + Cc1sc2c(c1C)C(c1ccc(Cl)cc1)=N[C@@H](CC(=O)OC(C)(C)C)c1nnc(C)n1-2 [NCGC00250412-19],-149
17,O=C(NC(Cc1cc(=O)[nH]c2ccccc12)C(=O)O)c1ccc(Cl)cc1 (configuration not stated) + Cc1sc2c(c1C)C(c1ccc(Cl)cc1)=N[C@@H](CC(=O)OC(C)(C)C)c1nnc(C)n1-2 [NCGC00250412-19],-189
18,CN(C)c1ccc(Nc2nc(N)n(C(=O)c3c(F)cccc3F)n2)cc1 + Cc1sc2c(c1C)C(c1ccc(Cl)cc1)=N[C@@H](CC(=O)OC(C)(C)C)c1nnc(C)n1-2 [NCGC00250412-19],-235

# Quoted at random: 3 entries already listed.
row,SMILES,excess over highest single agent
6,N=c1nc(N2CCCCC2)cc(N)n1O + Cc1sc2c(c1C)C(c1ccc(Cl)cc1)=N[C@@H](CC(=O)OC(C)(C)C)c1nnc(C)n1-2 [NCGC00250412-19],-91.3
15,O=C(O)Cn1nnc(-c2cc(N3CCC(Oc4cc(F)ccc4Br)CC3)no2)n1 + Cc1sc2c(c1C)C(c1ccc(Cl)cc1)=N[C@@H](CC(=O)OC(C)(C)C)c1nnc(C)n1-2 [NCGC00250412-19],-191
11,N#Cc1ccc(NC(=O)Nc2ccccc2Br)c2n[nH]nc12 + Cc1sc2c(c1C)C(c1ccc(Cl)cc1)=N[C@@H](CC(=O)OC(C)(C)C)c1nnc(C)n1-2 [NCGC00250412-19],-69.3
